Data: the supplement of paper PMC10849652
The list shows a part of the results.

Amino acid sequences for entries named in this document (tags omitted). A change or cut given only in a name is not applied to a line headed by its entry.
UniProt Q7L3V2: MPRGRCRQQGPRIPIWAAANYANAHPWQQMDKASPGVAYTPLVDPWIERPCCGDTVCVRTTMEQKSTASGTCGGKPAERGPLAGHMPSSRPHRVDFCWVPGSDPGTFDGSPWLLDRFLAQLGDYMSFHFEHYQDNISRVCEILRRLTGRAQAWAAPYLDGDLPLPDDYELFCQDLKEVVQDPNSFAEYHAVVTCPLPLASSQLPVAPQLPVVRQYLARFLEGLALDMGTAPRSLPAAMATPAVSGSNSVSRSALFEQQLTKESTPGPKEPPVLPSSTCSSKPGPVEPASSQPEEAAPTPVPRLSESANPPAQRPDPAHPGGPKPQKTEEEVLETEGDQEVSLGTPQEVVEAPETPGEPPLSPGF
UniProt P78345: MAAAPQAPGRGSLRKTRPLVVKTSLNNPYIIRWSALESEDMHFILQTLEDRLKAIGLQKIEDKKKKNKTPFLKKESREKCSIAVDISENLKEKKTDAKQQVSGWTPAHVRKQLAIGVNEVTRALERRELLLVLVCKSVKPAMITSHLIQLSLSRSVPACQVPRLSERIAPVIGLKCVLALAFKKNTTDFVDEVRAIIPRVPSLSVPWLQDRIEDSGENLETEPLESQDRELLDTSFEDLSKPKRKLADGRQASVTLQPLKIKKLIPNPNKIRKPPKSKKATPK
UniProt Q9HA92: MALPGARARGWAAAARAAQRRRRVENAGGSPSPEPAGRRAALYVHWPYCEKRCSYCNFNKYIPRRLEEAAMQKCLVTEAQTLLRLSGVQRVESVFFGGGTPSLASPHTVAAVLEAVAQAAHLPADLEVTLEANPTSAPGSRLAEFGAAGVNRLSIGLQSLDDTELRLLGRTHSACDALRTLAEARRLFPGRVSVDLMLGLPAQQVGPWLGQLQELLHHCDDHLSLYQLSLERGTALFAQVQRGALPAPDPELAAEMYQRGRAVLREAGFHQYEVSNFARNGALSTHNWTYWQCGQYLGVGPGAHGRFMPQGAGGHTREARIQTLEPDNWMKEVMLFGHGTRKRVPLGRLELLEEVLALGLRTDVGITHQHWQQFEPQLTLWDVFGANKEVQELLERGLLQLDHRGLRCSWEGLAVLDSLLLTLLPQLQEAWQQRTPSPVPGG
UniProt Q9BY42: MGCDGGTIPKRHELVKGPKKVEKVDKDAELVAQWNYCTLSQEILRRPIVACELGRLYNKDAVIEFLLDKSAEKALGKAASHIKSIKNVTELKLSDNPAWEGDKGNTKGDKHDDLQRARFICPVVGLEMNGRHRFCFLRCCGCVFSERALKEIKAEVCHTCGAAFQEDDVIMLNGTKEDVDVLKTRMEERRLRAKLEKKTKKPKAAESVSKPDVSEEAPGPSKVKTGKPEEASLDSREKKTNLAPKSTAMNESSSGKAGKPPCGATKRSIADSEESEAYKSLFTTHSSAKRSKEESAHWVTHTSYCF
UniProt O75582, whole entry, looked up: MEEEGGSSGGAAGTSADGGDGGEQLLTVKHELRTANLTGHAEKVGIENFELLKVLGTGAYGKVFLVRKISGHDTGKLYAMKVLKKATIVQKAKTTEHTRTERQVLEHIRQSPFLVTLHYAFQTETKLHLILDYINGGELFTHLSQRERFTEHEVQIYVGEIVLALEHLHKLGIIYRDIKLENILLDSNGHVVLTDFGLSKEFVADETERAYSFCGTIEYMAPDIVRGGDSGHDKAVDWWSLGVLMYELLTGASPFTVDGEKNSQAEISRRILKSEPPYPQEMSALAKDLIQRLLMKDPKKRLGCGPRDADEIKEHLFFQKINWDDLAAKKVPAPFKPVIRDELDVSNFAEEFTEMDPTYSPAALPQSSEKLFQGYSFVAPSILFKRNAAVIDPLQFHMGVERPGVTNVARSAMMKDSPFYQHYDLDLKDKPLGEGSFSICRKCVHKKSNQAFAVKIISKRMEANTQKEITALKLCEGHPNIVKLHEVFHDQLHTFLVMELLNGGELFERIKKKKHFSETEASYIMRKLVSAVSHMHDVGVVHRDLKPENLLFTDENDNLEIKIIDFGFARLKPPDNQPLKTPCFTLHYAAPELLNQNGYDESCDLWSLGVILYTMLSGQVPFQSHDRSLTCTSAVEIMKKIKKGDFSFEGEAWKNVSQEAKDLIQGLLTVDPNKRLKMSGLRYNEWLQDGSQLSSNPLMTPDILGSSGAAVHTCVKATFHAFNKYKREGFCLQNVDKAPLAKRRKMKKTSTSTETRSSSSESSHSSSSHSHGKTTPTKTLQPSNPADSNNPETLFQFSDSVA
UniProt Q9BUL9: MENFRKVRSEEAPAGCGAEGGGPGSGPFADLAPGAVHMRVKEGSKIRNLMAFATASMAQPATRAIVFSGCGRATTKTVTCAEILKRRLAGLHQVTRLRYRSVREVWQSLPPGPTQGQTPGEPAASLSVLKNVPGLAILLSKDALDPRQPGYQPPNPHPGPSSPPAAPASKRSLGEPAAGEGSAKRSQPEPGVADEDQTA

Tests used:
Assay in all cases: log2 fold change, soluble protein after heating vs DMSO (PISA); higher = thermal stabilisation; K562 lysate, 10 uM; active = over 0.2 and 3.5 SD of the protein, either way, in both replicates (recomputed)
[1] = compound: NCC(=O)Nc1ccc(-n2nc(C(F)(F)F)cc2-c2ccc3c(ccc4ccccc43)c2)cc1
Summary of the method: (§1)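 Pellets of K562 cells were dounce-homogenised in PBS pH 7.4 with 1 mM MgCl2, and the crude extract was held at 1 mg/mL protein for a 30 min treatment with 10 μM compound. Aliquots were heated for 3 min over 48°C-58°C and pooled before NP-40 was added to 0.5% at 4°C. The supernatant from 21,000xg for 90 min was quantified by TMTpro 16plex LC-MS/MS with channel sums equalised. Values are reported from duplicates as log-two fold change in thermal stability relative to solvent controls.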

vorinostat = compound: O=C(CCCCCCC(=O)Nc1ccccc1)NO [vorinostat]
Summary of the method: as §1

silmitasertib = compound: O=C(O)c1ccc2c(c1)nc(Nc1cccc(Cl)c1)c1ccncc12 [silmitasertib]
Summary of the method: as §1

[2] = compound: O=C1NC(=O)C(c2cnc3ccccn23)=C1c1cn2c3c(cc(F)cc13)CN(C(=O)N1CCCCC1)CC2
Summary of the method: as §1

entospletinib = compound: c1cn2cc(-c3ccc4cn[nH]c4c3)nc(Nc3ccc(N4CCOCC4)cc3)c2n1 [entospletinib]
Summary of the method: as §1

Measured: log2 fold change

RTL10 (UniProt Q7L3V2)
inactive: [1] 0.044 | vorinostat -0.195 | silmitasertib -0.058 | [2] 0.034 | entospletinib -0.073

RPP38 (UniProt P78345)
inactive: [1] 0.028 | vorinostat 0.041 | silmitasertib 0 | [2] 0.012 | entospletinib -0.026

RSAD1 (UniProt Q9HA92)
inactive: [1] 0.176 | vorinostat -0.144 | silmitasertib -0.032 | [2] -0.002 | entospletinib -0.01

RPS13 (UniProt P62277)
inactive: [1] 0.01 | vorinostat 0.077 | silmitasertib 0.038 | [2] 0.06 | entospletinib -0.024

RPLP0 (UniProt P05388)
inactive: [1] 0.013 | vorinostat 0.131 | silmitasertib -0.01 | [2] 0.02 | entospletinib 0.044

RPS8 (UniProt P62241)
inactive: [1] 0.015 | vorinostat 0.115 | silmitasertib 0.005 | [2] 0.039 | entospletinib 0.005

RTF2 (UniProt Q9BY42)
inactive: [1] 0.048 | vorinostat -0.017 | silmitasertib 0.023 | [2] 0 | entospletinib 0.007

RPSA (UniProt P08865)
inactive: [1] 0.03 | vorinostat 0.009 | silmitasertib 0.036 | [2] 0.04 | entospletinib -0.003

RPS6KA5 (UniProt O75582)
inactive: [1] -0.025 | vorinostat -0.189 | silmitasertib 0.034 | [2] -0.303 | entospletinib -0.007

RPS26 (UniProt P62854)
inactive: [1] 0.014 | vorinostat 0.043 | silmitasertib -0.06 | [2] -0.019 | entospletinib 0.009

RPS14 (UniProt P62263)
inactive: [1] -0.005 | vorinostat 0.027 | silmitasertib -0.018 | [2] 0.04 | entospletinib 0.018

RPP25 (UniProt Q9BUL9)
inactive: [1] -0.06 | vorinostat 0.063 | silmitasertib -0.159 | [2] 0.084 | entospletinib -0.038
